# Measured values reported in the supplement of paper PMC12823440, “Inhibitors supercharge kinase turnover through native proteolytic circuits” (Nature, 2025).
# Sequences of proteins named here, by UniProt entry; tags and fusion partners are left off. A change or cut given only in a name is not applied to a line headed by its entry.
# UniProt P29317, whole entry: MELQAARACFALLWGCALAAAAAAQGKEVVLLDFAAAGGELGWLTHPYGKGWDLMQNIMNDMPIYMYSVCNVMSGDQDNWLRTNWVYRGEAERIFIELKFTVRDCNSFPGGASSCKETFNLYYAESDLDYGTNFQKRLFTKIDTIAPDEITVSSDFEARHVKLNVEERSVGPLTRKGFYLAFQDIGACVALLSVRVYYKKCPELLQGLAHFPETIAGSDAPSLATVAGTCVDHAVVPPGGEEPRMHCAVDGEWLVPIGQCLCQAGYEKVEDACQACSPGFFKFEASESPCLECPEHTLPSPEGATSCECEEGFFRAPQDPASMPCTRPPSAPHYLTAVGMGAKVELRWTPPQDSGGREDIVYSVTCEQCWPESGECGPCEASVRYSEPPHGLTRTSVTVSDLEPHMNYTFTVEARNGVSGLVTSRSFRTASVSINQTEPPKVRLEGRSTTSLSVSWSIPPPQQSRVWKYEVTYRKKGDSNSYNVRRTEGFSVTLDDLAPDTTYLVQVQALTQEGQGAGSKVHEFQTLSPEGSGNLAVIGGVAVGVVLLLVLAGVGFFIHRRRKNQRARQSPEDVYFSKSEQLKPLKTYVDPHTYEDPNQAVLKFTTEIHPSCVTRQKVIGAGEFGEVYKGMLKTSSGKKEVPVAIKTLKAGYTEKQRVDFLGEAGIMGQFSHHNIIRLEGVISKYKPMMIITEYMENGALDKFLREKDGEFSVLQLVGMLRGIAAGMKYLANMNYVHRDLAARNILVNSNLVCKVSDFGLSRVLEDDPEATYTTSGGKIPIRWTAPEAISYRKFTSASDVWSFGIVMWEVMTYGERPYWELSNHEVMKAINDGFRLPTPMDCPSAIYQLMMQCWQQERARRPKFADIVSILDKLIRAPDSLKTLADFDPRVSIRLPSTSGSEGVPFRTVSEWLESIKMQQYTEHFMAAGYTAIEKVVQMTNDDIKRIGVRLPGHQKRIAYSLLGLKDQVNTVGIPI
# UniProt O75460: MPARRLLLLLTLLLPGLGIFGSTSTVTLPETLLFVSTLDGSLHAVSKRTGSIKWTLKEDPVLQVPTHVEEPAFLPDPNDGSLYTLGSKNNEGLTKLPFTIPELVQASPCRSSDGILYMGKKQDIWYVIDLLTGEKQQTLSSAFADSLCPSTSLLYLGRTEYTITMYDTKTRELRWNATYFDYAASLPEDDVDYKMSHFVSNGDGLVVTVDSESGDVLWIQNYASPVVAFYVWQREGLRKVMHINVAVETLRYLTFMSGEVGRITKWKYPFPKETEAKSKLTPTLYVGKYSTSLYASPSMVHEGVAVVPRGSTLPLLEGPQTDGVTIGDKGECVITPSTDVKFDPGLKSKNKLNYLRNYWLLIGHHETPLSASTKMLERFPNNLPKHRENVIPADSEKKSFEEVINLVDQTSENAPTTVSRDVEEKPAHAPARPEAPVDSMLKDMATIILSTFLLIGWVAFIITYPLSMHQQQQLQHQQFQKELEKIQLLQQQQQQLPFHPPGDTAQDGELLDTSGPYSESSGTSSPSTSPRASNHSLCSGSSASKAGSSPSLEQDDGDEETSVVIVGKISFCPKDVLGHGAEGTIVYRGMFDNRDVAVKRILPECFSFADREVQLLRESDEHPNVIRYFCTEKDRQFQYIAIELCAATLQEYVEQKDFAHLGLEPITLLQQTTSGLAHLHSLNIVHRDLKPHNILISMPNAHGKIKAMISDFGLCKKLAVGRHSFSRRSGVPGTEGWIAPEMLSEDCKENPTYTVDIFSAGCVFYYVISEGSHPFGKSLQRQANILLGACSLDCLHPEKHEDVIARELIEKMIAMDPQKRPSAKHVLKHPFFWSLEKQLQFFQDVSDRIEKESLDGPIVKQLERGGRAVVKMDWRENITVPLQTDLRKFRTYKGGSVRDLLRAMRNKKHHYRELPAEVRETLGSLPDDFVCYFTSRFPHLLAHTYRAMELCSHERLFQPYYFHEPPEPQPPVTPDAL
# UniProt P11362, whole entry, looked up: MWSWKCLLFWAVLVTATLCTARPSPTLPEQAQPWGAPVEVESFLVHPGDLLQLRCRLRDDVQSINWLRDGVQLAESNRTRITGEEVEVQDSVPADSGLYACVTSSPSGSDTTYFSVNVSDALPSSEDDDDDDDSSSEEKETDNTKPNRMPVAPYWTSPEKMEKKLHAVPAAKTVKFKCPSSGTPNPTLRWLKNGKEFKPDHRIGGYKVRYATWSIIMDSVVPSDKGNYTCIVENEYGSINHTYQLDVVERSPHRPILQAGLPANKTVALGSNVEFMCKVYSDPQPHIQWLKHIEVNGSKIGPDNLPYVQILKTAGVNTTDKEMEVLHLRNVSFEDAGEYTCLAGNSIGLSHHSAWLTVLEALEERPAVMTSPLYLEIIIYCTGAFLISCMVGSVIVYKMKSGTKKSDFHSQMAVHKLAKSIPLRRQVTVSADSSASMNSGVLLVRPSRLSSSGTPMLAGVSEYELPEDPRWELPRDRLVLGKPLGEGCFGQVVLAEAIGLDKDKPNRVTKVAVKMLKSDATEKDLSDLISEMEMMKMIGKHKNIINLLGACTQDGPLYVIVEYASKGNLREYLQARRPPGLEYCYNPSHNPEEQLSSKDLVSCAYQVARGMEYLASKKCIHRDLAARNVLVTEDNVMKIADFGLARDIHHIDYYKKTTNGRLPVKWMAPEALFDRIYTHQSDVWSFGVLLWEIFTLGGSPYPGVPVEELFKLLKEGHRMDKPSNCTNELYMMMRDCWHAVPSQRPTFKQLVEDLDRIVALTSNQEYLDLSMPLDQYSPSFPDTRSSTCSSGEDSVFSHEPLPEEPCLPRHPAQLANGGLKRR
# UniProt P21802, whole entry, looked up: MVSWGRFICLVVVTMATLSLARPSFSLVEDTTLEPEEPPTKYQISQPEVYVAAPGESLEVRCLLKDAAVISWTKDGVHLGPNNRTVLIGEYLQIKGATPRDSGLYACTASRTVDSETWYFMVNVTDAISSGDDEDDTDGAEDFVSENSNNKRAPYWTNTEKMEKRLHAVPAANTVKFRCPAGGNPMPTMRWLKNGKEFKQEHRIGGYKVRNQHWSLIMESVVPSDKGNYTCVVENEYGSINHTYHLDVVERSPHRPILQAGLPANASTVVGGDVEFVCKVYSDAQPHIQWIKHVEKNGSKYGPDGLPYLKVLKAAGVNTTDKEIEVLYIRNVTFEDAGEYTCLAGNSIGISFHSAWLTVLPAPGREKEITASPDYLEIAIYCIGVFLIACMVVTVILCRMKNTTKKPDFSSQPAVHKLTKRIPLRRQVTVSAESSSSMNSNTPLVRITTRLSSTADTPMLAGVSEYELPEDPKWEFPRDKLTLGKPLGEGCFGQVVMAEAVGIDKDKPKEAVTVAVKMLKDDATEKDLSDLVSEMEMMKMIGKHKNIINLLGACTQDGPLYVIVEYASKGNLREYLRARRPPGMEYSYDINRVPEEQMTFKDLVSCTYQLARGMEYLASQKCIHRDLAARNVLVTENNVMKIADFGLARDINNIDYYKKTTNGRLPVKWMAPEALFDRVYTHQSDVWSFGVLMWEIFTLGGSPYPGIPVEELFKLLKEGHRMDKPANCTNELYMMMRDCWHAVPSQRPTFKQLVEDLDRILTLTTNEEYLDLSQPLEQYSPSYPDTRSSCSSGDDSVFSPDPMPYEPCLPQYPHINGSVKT
# UniProt P22607, whole entry, looked up: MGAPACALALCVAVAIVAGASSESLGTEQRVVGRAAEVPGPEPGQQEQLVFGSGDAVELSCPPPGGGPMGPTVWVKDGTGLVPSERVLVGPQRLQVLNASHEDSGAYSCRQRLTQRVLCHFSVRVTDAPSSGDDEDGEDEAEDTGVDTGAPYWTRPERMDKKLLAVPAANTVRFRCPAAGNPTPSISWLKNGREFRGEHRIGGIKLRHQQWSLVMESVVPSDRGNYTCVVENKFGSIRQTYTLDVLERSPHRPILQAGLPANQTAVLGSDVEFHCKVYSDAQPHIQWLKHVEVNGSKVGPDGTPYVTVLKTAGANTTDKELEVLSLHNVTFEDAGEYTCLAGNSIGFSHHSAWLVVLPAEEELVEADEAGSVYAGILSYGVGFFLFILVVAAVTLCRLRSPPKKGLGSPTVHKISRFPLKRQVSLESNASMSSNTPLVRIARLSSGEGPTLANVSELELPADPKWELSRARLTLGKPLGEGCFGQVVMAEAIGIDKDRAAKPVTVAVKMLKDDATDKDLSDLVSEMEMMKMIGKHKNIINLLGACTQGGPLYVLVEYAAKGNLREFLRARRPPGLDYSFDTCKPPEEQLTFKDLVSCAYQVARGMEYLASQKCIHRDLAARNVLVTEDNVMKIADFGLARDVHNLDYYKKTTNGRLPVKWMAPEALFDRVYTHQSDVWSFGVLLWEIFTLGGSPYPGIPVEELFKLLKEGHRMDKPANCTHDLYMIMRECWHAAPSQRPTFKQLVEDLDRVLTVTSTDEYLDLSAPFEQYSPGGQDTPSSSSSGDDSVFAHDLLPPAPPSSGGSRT
# UniProt P36888, whole entry: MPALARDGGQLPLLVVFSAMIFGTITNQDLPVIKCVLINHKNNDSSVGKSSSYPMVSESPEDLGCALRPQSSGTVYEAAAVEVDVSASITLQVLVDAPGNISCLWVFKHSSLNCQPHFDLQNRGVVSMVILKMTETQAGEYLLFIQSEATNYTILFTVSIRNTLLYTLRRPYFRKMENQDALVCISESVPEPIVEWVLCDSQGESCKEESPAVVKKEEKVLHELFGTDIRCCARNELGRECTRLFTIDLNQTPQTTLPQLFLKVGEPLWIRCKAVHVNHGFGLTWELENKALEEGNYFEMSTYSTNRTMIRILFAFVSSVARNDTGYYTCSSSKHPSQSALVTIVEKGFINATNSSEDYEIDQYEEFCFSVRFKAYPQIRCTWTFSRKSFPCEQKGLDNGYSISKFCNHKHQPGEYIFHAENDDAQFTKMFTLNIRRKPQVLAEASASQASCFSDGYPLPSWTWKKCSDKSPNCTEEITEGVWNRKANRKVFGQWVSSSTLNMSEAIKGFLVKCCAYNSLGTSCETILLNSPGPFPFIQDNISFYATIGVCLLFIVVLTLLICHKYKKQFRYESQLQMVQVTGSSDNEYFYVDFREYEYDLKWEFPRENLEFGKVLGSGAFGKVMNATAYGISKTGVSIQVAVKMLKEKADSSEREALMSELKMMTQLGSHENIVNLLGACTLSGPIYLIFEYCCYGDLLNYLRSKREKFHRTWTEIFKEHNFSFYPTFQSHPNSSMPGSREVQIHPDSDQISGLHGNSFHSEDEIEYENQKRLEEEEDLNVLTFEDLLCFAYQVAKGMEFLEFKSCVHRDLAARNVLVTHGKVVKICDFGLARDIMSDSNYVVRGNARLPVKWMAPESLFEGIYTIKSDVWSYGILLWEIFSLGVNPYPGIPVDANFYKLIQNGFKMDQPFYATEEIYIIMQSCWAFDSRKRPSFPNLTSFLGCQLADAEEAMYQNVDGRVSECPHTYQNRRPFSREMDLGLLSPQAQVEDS
# UniProt P06241, whole entry, looked up: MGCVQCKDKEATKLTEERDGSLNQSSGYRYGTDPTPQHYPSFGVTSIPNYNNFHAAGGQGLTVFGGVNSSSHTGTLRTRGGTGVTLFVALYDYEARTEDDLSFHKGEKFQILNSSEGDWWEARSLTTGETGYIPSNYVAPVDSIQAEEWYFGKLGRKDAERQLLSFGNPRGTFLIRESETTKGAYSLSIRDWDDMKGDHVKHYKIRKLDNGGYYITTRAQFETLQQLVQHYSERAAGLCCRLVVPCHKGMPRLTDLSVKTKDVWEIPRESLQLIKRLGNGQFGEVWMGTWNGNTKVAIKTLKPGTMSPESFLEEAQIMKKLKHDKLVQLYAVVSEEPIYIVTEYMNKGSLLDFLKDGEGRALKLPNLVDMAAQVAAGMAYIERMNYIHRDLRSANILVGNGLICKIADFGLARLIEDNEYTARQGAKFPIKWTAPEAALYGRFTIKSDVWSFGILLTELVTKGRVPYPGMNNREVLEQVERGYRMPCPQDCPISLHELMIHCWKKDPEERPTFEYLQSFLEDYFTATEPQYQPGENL
# UniProt P49840: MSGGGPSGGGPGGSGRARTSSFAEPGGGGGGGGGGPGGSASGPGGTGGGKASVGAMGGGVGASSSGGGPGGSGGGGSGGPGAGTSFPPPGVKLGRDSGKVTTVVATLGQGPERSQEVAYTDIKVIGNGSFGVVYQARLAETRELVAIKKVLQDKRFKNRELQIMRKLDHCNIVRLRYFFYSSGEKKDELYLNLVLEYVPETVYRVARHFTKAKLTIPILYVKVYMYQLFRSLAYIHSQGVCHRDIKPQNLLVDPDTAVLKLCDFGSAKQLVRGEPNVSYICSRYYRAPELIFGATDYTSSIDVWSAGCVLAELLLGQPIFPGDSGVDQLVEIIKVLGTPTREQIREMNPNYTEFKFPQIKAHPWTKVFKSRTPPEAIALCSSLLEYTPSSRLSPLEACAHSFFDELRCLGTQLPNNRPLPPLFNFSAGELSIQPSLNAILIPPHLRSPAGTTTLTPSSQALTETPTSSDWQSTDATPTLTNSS
# Structures can show the parent of a compound that is named as a salt. The list shows a part of the results. Hit calls seldom repeat between salt and free forms of one compound.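 Kinases were expressed as nanoluciferase fusions in K562 cells and luminescence was read every 4 h between 2 and 18 h as percent of control, DMSO set to 100% and a positive control to 0%. A time point counts as decreased when the signal drops significantly (2 sigma). The hit call is the authors' own, does not follow from the count of time points alone, and its rule is not shown.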
# What was measured:
# Test in all cases: kinase-Nluc reporter destabilization hit call (1 = scored as downregulated) (binary); higher = compound decreases kinase abundance
# Conditions in all cases: K562; 2-18 h
# [1] = biological target: EGFR (UniProt P00533)
# [2] = biological target: EGFR_G719S (UniProt P00533)
# [3] = biological target: EGFR_G719S_T790M (UniProt P00533)
# [4] = biological target: EGFR_L718V (UniProt P00533)
# [5] = biological target: EGFR_L858R (UniProt P00533)
# [6] = biological target: EGFR_L861Q (UniProt P00533)
# [7] = biological target: EGFR_T790M (UniProt P00533)
# [8] = biological target: EPHA2 (UniProt P29317)
# [9] = biological target: ERBB3 (UniProt P21860)
# [10] = biological target: ERBB4_R711C (clone: ERBB4_mut) (UniProt Q15303)
# [11] = biological target: ERN1 (UniProt O75460)
# [12] = biological target: FGFR1 (UniProt P11362)
# [13] = biological target: FGFR2 (UniProt P21802)
# [14] = biological target: FGFR3 (UniProt P22607)
# [15] = biological target: FGR (UniProt P09769)
# [16] = biological target: FLT3 (UniProt P36888)
# [17] = biological target: FYN (UniProt P06241)
# [18] = biological target: GSK3A (UniProt P49840)
# [19] = biological target: HER2 (UniProt P04626)
# [20] = biological target: INSRR (UniProt P14616)
Compound,kinase-Nluc reporter destabilization hit call [1],kinase-Nluc reporter destabilization hit call [2],kinase-Nluc reporter destabilization hit call [3],kinase-Nluc reporter destabilization hit call [4],kinase-Nluc reporter destabilization hit call [5],kinase-Nluc reporter destabilization hit call [6],kinase-Nluc reporter destabilization hit call [7],kinase-Nluc reporter destabilization hit call [8],kinase-Nluc reporter destabilization hit call [9],kinase-Nluc reporter destabilization hit call [10],kinase-Nluc reporter destabilization hit call [11],kinase-Nluc reporter destabilization hit call [12],kinase-Nluc reporter destabilization hit call [13],kinase-Nluc reporter destabilization hit call [14],kinase-Nluc reporter destabilization hit call [15],kinase-Nluc reporter destabilization hit call [16],kinase-Nluc reporter destabilization hit call [17],kinase-Nluc reporter destabilization hit call [18],kinase-Nluc reporter destabilization hit call [19],kinase-Nluc reporter destabilization hit call [20]
CN1C(=O)N[C@@H](Cc2c[nH]c3c(Cl)cccc23)C1=O [Necrostatin 2 (S enantiomer)] (10 µM),inactive: 0,inactive: 0,inactive: 0,inactive: 0,inactive: 0,inactive: 0,inactive: 0,inactive: 0,inactive: 0,inactive: 0,inactive: 0,inactive: 0,inactive: 0,inactive: 0,inactive: 0,inactive: 0,inactive: 0,inactive: 0,inactive: 0,inactive: 0
CCOc1cc(=O)[nH]cc1-c1ccc(CC(=O)Nc2cc(C(C)(C)C(F)(F)F)on2)c(F)c1 (10 µM),inactive: 0,inactive: 0,inactive: 0,inactive: 0,inactive: 0,inactive: 0,inactive: 0,inactive: 0,inactive: 0,inactive: 0,inactive: 0,inactive: 0,inactive: 0,inactive: 0,inactive: 0,inactive: 0,inactive: 0,inactive: 0,inactive: 0,inactive: 0
O=C(Nc1ccc(F)cc1F)C(NC(=S)Nc1cc(C(F)(F)F)cc(C(F)(F)F)c1)c1ccccc1 (racemic) (2.5 µM),inactive: 0,inactive: 0,inactive: 0,inactive: 0,inactive: 0,inactive: 0,inactive: 0,inactive: 0,inactive: 0,inactive: 0,inactive: 0,inactive: 0,inactive: 0,inactive: 0,inactive: 0,inactive: 0,inactive: 0,inactive: 0,inactive: 0,inactive: 0
CCCS(=O)(=O)N[C@H]1C[C@@H](N(C)c2ncnc3[nH]ccc23)C1 [Abrocitinib] (10 µM),inactive: 0,inactive: 0,inactive: 0,inactive: 0,inactive: 0,inactive: 0,inactive: 0,inactive: 0,inactive: 0,inactive: 0,inactive: 0,inactive: 0,inactive: 0,inactive: 0,inactive: 0,inactive: 0,inactive: 0,inactive: 0,inactive: 0,inactive: 0
N#CC(=C(/N)Sc1ccccc1N)/C(C#N)=C(\N)Sc1ccccc1N (10 µM),inactive: 0,inactive: 0,inactive: 0,inactive: 0,inactive: 0,inactive: 0,inactive: 0,inactive: 0,inactive: 0,inactive: 0,inactive: 0,inactive: 0,inactive: 0,inactive: 0,inactive: 0,inactive: 0,inactive: 0,inactive: 0,inactive: 0,inactive: 0
O=C1CCC(N2C(=O)c3cccc(OCCCCCOc4ccc(CC(=O)Nc5cc(C6CCC6)[nH]n5)cc4)c3C2=O)C(=O)N1 (stereo not given) [PROTAC CDK9 Degrader-1] (10 µM),inactive: 0,inactive: 0,inactive: 0,inactive: 0,inactive: 0,inactive: 0,inactive: 0,inactive: 0,inactive: 0,inactive: 0,inactive: 0,inactive: 0,inactive: 0,inactive: 0,inactive: 0,inactive: 0,inactive: 0,inactive: 0,inactive: 0,inactive: 0
CC(C)n1c(CO)nc2c(F)cc(-c3nc(Nc4ccc(CN5CCNCC5)cn4)ncc3F)cc21 (10 µM),inactive: 0,inactive: 0,inactive: 0,inactive: 0,inactive: 0,inactive: 0,inactive: 0,inactive: 0,inactive: 0,inactive: 0,inactive: 0,inactive: 0,inactive: 0,inactive: 0,inactive: 0,inactive: 0,inactive: 0,inactive: 0,inactive: 0,inactive: 0
NCCNS(=O)(=O)c1ccc(Cl)c2ccncc12 [CKI-7 (free base)] (10 µM),inactive: 0,inactive: 0,inactive: 0,inactive: 0,inactive: 0,inactive: 0,inactive: 0,inactive: 0,inactive: 0,inactive: 0,inactive: 0,inactive: 0,inactive: 0,inactive: 0,inactive: 0,inactive: 0,inactive: 0,inactive: 0,inactive: 0,inactive: 0
Nc1ccc(-c2cccc(C(=O)Nc3cnc4nc(N5CCOCC5)oc4c3)n2)cn1 (10 µM),inactive: 0,inactive: 0,inactive: 0,inactive: 0,inactive: 0,inactive: 0,inactive: 0,active: 1,inactive: 0,inactive: 0,inactive: 0,inactive: 0,inactive: 0,inactive: 0,inactive: 0,inactive: 0,inactive: 0,inactive: 0,inactive: 0,inactive: 0
CC1(C)C=Cc2c(ccc(C(=O)/C=C/c3ccc(O)cc3)c2O)O1 [4-Hydroxylonchocarpin] (10 µM),inactive: 0,inactive: 0,inactive: 0,inactive: 0,inactive: 0,inactive: 0,inactive: 0,inactive: 0,inactive: 0,inactive: 0,inactive: 0,inactive: 0,inactive: 0,inactive: 0,inactive: 0,inactive: 0,inactive: 0,inactive: 0,inactive: 0,inactive: 0
Nc1ccc(O)c(C(=O)O)c1 [5-Aminosalicylic Acid] (10 µM),inactive: 0,inactive: 0,inactive: 0,inactive: 0,inactive: 0,inactive: 0,inactive: 0,inactive: 0,inactive: 0,inactive: 0,inactive: 0,inactive: 0,inactive: 0,inactive: 0,inactive: 0,inactive: 0,inactive: 0,inactive: 0,inactive: 0,inactive: 0
CNCc1cc(Oc2ccc3c(ccn3C(=O)Nc3cc(C(F)(F)F)n(C)n3)c2)ncn1 [Acrizanib] (10 µM),inactive: 0,inactive: 0,inactive: 0,inactive: 0,inactive: 0,inactive: 0,inactive: 0,inactive: 0,inactive: 0,inactive: 0,inactive: 0,inactive: 0,inactive: 0,inactive: 0,inactive: 0,inactive: 0,inactive: 0,inactive: 0,inactive: 0,inactive: 0
CN(C)c1ccc(/C=C2\C(=O)Nc3ccccc32)c2ccccc12 (10 µM),inactive: 0,inactive: 0,inactive: 0,inactive: 0,inactive: 0,inactive: 0,inactive: 0,inactive: 0,inactive: 0,inactive: 0,inactive: 0,inactive: 0,inactive: 0,inactive: 0,inactive: 0,inactive: 0,inactive: 0,inactive: 0,inactive: 0,inactive: 0
COc1cc(N2CCC(N3CCN(C)CC3)CC2)ccc1Nc1ncnc(Nc2ccccc2S(=O)(=O)C(C)C)n1 (10 µM),inactive: 0,inactive: 0,inactive: 0,inactive: 0,inactive: 0,inactive: 0,inactive: 0,inactive: 0,inactive: 0,inactive: 0,inactive: 0,inactive: 0,inactive: 0,inactive: 0,inactive: 0,inactive: 0,inactive: 0,inactive: 0,inactive: 0,inactive: 0
Nc1nc(Nc2ccc3c(c2)CC[C@@H](N2CCCC2)CC3)nn1-c1cc2c(nn1)-c1ccccc1CCC2 [Bemcentinib] (2.5 µM),inactive: 0,inactive: 0,inactive: 0,inactive: 0,inactive: 0,inactive: 0,inactive: 0,inactive: 0,inactive: 0,inactive: 0,inactive: 0,inactive: 0,inactive: 0,inactive: 0,inactive: 0,inactive: 0,inactive: 0,inactive: 0,inactive: 0,inactive: 0
CNCCOc1ccccc1C1(Nc2nccn(-c3cc(C(=O)NC4CC4)cc(F)c3C)c2=O)CC1 (10 µM),inactive: 0,inactive: 0,inactive: 0,inactive: 0,inactive: 0,inactive: 0,inactive: 0,inactive: 0,inactive: 0,inactive: 0,inactive: 0,inactive: 0,inactive: 0,inactive: 0,inactive: 0,inactive: 0,inactive: 0,inactive: 0,inactive: 0,inactive: 0
CC(=O)O/N=C1/C(c2c(O)[nH]c3cc(Br)ccc23)=Nc2ccccc21 [BIO-acetoxime] (10 µM),inactive: 0,inactive: 0,inactive: 0,inactive: 0,inactive: 0,inactive: 0,inactive: 0,inactive: 0,inactive: 0,inactive: 0,inactive: 0,inactive: 0,inactive: 0,inactive: 0,inactive: 0,inactive: 0,inactive: 0,inactive: 0,inactive: 0,inactive: 0
COc1ccc(CCNCc2ccc(OCc3ccc(Cl)nc3)c(OC)c2)cc1OC [SBE13 (Hydrochloride)] (10 µM),inactive: 0,inactive: 0,inactive: 0,inactive: 0,inactive: 0,inactive: 0,inactive: 0,inactive: 0,inactive: 0,inactive: 0,inactive: 0,inactive: 0,inactive: 0,inactive: 0,inactive: 0,inactive: 0,inactive: 0,inactive: 0,inactive: 0,inactive: 0

# 2 compounds drawn at random from the list so far:
Compound,kinase-Nluc reporter destabilization hit call [1],kinase-Nluc reporter destabilization hit call [2],kinase-Nluc reporter destabilization hit call [3],kinase-Nluc reporter destabilization hit call [4],kinase-Nluc reporter destabilization hit call [5],kinase-Nluc reporter destabilization hit call [6],kinase-Nluc reporter destabilization hit call [7],kinase-Nluc reporter destabilization hit call [8],kinase-Nluc reporter destabilization hit call [9],kinase-Nluc reporter destabilization hit call [10],kinase-Nluc reporter destabilization hit call [11],kinase-Nluc reporter destabilization hit call [12],kinase-Nluc reporter destabilization hit call [13],kinase-Nluc reporter destabilization hit call [14],kinase-Nluc reporter destabilization hit call [15],kinase-Nluc reporter destabilization hit call [16],kinase-Nluc reporter destabilization hit call [17],kinase-Nluc reporter destabilization hit call [18],kinase-Nluc reporter destabilization hit call [19],kinase-Nluc reporter destabilization hit call [20]
O=C1CCC(N2C(=O)c3cccc(OCCCCCOc4ccc(CC(=O)Nc5cc(C6CCC6)[nH]n5)cc4)c3C2=O)C(=O)N1 (stereo not given) [PROTAC CDK9 Degrader-1] (10 µM),inactive: 0,inactive: 0,inactive: 0,inactive: 0,inactive: 0,inactive: 0,inactive: 0,inactive: 0,inactive: 0,inactive: 0,inactive: 0,inactive: 0,inactive: 0,inactive: 0,inactive: 0,inactive: 0,inactive: 0,inactive: 0,inactive: 0,inactive: 0
CN1C(=O)N[C@@H](Cc2c[nH]c3c(Cl)cccc23)C1=O [Necrostatin 2 (S enantiomer)] (10 µM),inactive: 0,inactive: 0,inactive: 0,inactive: 0,inactive: 0,inactive: 0,inactive: 0,inactive: 0,inactive: 0,inactive: 0,inactive: 0,inactive: 0,inactive: 0,inactive: 0,inactive: 0,inactive: 0,inactive: 0,inactive: 0,inactive: 0,inactive: 0
